This is an account of results in patent US10058525B2, “Application of chlorogenic acid in preparing medicines for treating lupus erythematosus” (SICHUAN JIUZHANG BIOLOGICAL SCIENCE AND TECHNOLOGY CO., LTD., priority 2015, dated 2018).

This data set relates to lupus erythematosus model mice (renal glomerular capsule wall epithelial cells). The experiment in a line: Electron microscope observation of kidney samples, lupus model mice. The note with it: positive controls (artesunate, prednisone), 21 days. The format is in vivo, BALB/c mice. The protocol: The back of mice was shaved and acutely exposed to Ultraviolet of 2 h/d*3 d, with a distance of 30 cm. After exposure to UV, 2.5 mg/kg of LPS was administrated once by ip, and after 24 h, the model was successfully established; the mice in the normal control group received normal saline via ip. 24 h after injection of LPS (ip), medicines were given to the model mice by intragastric administration. Chlorogenic acid test groups received high, middle, and low doses of medicines, by intragastric administration at a respective dosage of 10 mg/kg*d, 20 mg/kg*d, and 40 mg/kg*d. The positive control group A received 2 mg/kg*d of artesunate by stomach perfusion, while the positive control group B received 1 mg/kg*d of prednisone by stomach perfusion. Mice in the model and normal control group all received 0.4 ml/mouse normal saline by gavage. After 15 days of administration, animals in each group were taken blood by separating eyeballs on days 14, 21, 28, and after cultured in water bath at 37° C. for 1 h, the blood sample was centrifugated at 2000 r/min for 5 min, to draw serum for use. On day 21, after blood collection, animals were sacrificed by dislocation, followed by collection of liver and kidney, and they were placed in fixative solutions of electron microscope and light microscrope, respectively. […]

As to `C[C@H]1[C@H](OC(=O)CCC(=O)O)O[C@@H]2O[C@@]3(C)CC[C@H]4[C@H](C)CC[C@@H]1[C@@]24OO3` [Artesunate, artesunate, reference compound], the “accompanying electron microscope findings in kidney” value is listed as “accompanied by thrombus”. The value for `C[C@]12C=CC(=O)C=C1CC[C@@H]1[C@@H]2C(=O)C[C@@]2(C)[C@H]1CC[C@]2(O)C(=O)CO` [Prednisone, prednisone, reference compound] was “the number of mitochondria increased, accompanied by the loss of organelles”.
